# Measured values: US20030100094
# The exact form of at least one protein or probe is not confirmed.
# Test system: R.BbvCI (R1+:R2+) (Bacillus brevis)
# Experiment: enzyme reaction in vitro
# Conditions: double-strand cleavage; NEBuffer 4 (10 mM Mg), 37 C; purified recombinant protein; only the site is given
sequence,measurement,value
"CCTCAGC (double strand) [supercoiled pUB plasmid (two BbvCI sites, one EcoRI site)]",activity on this sequence,active
